According to article PMC7730438 (Scientific Reports, 2020):
Starred links: 1 amine or outer side, 2 acyl side, 3 side chain; linkers in the order of their positions; H or OH if unused. Positions of bridges follow the written chain, without caps; N, C: chain ends. Non-standard residues stand in square brackets, D forms with d. Phe(4-F) = N[C@@H](Cc1ccc(F)cc1)C(=O)O; X1 = CCCCCCC[C@H](N[*:1])C(=O)[*:2]; Nle = CCCC[C@H](N)C(=O)O; X2 = C(C[*:1])C[*:2]; βAla = NCCC(=O)O

Assay: peptide made by a vendor (Fmoc solid-phase peptide synthesis; HOAt/EDC (main-chain cyclisation))
Details: cyclisation step, analytical RP-HPLC

Substance	final HPLC purity [%]
c(βAla-Pro-Nle-Cys-Anon-Ser-4fF-Asp-Pro-Trp-^DCys)	95.54
cyclo([βAla]P[Nle]C[X1]S[Phe(4-F)]DPW[dC]) (linker 4-11 via X2; SMILES CCCCCCC[C@@H]1NC(=O)[C@@H]2CSCCCSC[C@@H](NC(=O)[C@H](Cc3c[nH]c4ccccc34)NC(=O)[C@@H]3CCCN3C(=O)[C@H](CC(=O)O)NC(=O)[C@H](Cc3ccc(F)cc3)NC(=O)[C@H](CO)NC1=O)C(=O)NCCC(=O)N1CCC[C@H]1C(=O)N[C@@H](CCCC)C(=O)N2)	95.32
